Laboratory results: PubChem BioAssay AID1259308 (NCATS, 2017)
Here is a random part of about 59,000 deposited reagents. About 1,510 of them (2.6%) were called active. 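Calls use total luciferase alone and ignore viability, so some active siRNAs may act by altering cell number.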 The numbers tell different reagents against one gene apart. Not all columns of the deposit are shown.

Screen: 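Knock-downs that increase output of a recombinant reporter protein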 (primary screen)
Cells: human HEK293 embryonic kidney cells stably expressing firefly luciferase (HEK-CMV-Luc2-Hygro)
Reagent: single siRNA against human genes, 0.8 pmol siRNA per well
Duration: 72 h
Measurement: 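Reporter luminescence and viable-cell signal on separate replicate plates, given as percent of non-targeting control and median/MAD z-scores, plus per-cell luciferase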
Reading the numbers: total luciferase, z-score and total luciferase, % of control: higher = more reporter protein produced
Call rule: 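Active when the median/MAD z-score for overall luciferase is greater than 3; a gene was taken forward for validation with new siRNAs if at least two of its three siRNAs passed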
Calls: active = raised luciferase; inactive = no rise

Target gene | siRNA no. | total luciferase, z-score | total luciferase, % of control | outcome
RAD18 | 1 | 1.21 | 106 | inactive
RAD18 | 2 | 0.927 | 100 | inactive
RAD18 | 3 | -0.793 | 66.1 | inactive
OTOR | 1 | -0.376 | 74.4 | inactive
OTOR | 2 | -0.321 | 75.5 | inactive
OTOR | 3 | 2.3 | 128 | inactive
CHAC1 | 1 | -0.845 | 65.1 | inactive
CHAC1 | 2 | -0.649 | 69 | inactive
CHAC1 | 3 | -1.14 | 59.2 | inactive
MAN2B1 | 1 | 1.61 | 114 | inactive
MAN2B1 | 2 | -0.508 | 71.8 | inactive
MAN2B1 | 3 | 1.5 | 112 | inactive
PP2D1 | 1 | -0.531 | 71.3 | inactive
PP2D1 | 2 | 0.922 | 100 | inactive
PP2D1 | 3 | 0.803 | 97.9 | inactive
MEIG1 | 1 | -0.0253 | 81.4 | inactive
MEIG1 | 2 | -0.0448 | 81 | inactive
MEIG1 | 3 | -0.218 | 77.6 | inactive
SLC5A9 | 1 | 0.432 | 90.5 | inactive
SLC5A9 | 2 | -1.18 | 58.5 | inactive
SLC5A9 | 3 | -0.464 | 72.7 | inactive
PTPRO | 1 | -1.69 | 48.3 | inactive
PTPRO | 2 | -0.000662 | 81.9 | inactive
PTPRO | 3 | 0.0938 | 83.8 | inactive
CYP7B1 | 1 | -0.51 | 71.7 | inactive
CYP7B1 | 2 | -0.528 | 71.4 | inactive
CYP7B1 | 3 | -0.16 | 78.7 | inactive

10 entries from above, sorted by “total luciferase, % of control”, high to low:
Target gene | siRNA no. | total luciferase, z-score | total luciferase, % of control | outcome
MAN2B1 | 3 | 1.5 | 112 | inactive
PP2D1 | 2 | 0.922 | 100 | inactive
PP2D1 | 3 | 0.803 | 97.9 | inactive
SLC5A9 | 1 | 0.432 | 90.5 | inactive
MEIG1 | 1 | -0.0253 | 81.4 | inactive
MEIG1 | 2 | -0.0448 | 81 | inactive
MEIG1 | 3 | -0.218 | 77.6 | inactive
MAN2B1 | 2 | -0.508 | 71.8 | inactive
PP2D1 | 1 | -0.531 | 71.3 | inactive
SLC5A9 | 2 | -1.18 | 58.5 | inactive

Further reagents:
Target gene | siRNA no. | total luciferase, z-score | total luciferase, % of control | outcome
MAP3K14 | 1 | 0.566 | 93.1 | inactive
MAP3K14 | 2 | -0.256 | 76.8 | inactive
MAP3K14 | 3 | -0.182 | 78.3 | inactive
FGD2 | 1 | 1.04 | 103 | inactive
FGD2 | 2 | 0.487 | 91.6 | inactive
FGD2 | 3 | -0.78 | 66.4 | inactive
BTG3 | 1 | 0.344 | 88.7 | inactive
BTG3 | 2 | 0.245 | 86.8 | inactive
BTG3 | 3 | -1.12 | 59.6 | inactive
RGS8 | 1 | 3.47 | 151 | active
RGS8 | 2 | 2.13 | 124 | inactive
RGS8 | 3 | 1.45 | 111 | inactive
HUS1 | 1 | -1.11 | 59.9 | inactive
HUS1 | 2 | -0.71 | 67.8 | inactive
HUS1 | 3 | 0.581 | 93.4 | inactive
SH2D4B | 1 | 0.834 | 98.5 | inactive
SH2D4B | 2 | -0.106 | 79.8 | inactive
SH2D4B | 3 | 0.414 | 90.1 | inactive
SRSF8 | 1 | -1.05 | 61 | inactive
SRSF8 | 2 | -0.109 | 79.7 | inactive
SRSF8 | 3 | -0.0149 | 81.6 | inactive
PICALM | 1 | 0.299 | 87.8 | inactive
PICALM | 2 | 1.82 | 118 | inactive
PICALM | 3 | 2.34 | 128 | inactive
USP39 | 1 | 1.11 | 104 | inactive
USP39 | 2 | -0.406 | 73.8 | inactive
USP39 | 3 | 1.07 | 103 | inactive
FOLR3 | 1 | -0.571 | 70.5 | inactive
FOLR3 | 2 | -0.118 | 79.5 | inactive
FOLR3 | 3 | -0.0247 | 81.4 | inactive
PPP1R14B | 1 | 0.414 | 90.1 | inactive
PPP1R14B | 2 | -0.246 | 77 | inactive
PPP1R14B | 3 | -0.834 | 65.3 | inactive
DST | 1 | -0.0294 | 81.3 | inactive
DST | 2 | 1.33 | 108 | inactive
DST | 3 | 0.553 | 92.9 | inactive
LBH | 1 | 0.201 | 85.9 | inactive
LBH | 2 | 0.914 | 100 | inactive
LBH | 3 | 0.675 | 95.3 | inactive
RPS27L | 1 | -0.564 | 70.7 | inactive
RPS27L | 2 | 0.399 | 89.8 | inactive
RPS27L | 3 | 0.474 | 91.3 | inactive
TSPY1 | 1 | -0.23 | 77.3 | inactive
TSPY1 | 2 | 2.24 | 126 | inactive
TSPY1 | 3 | 0.248 | 86.8 | inactive
SP5 | 1 | 2.43 | 130 | inactive
SP5 | 2 | 1.65 | 115 | inactive
SP5 | 3 | 0.411 | 90.1 | inactive
